# Reference: PMC10363768
# Results are given in words; binding and its absence hold for the method and conditions named. For part of these data: A result given as binding can be weak or reduced; the word gives no strength. Tags and fused reporters may be left off the sequences shown. For part of these data: Binding seen in cells or lysates may run through a third protein.
# What was measured:
# BK-OsOTUB1.1 (rice) = experiment: two-hybrid; Gal4 system, bait in pGBKT7 and prey in pGADT7 co-transformed into yeast AH109; growth on dropout medium lacking Leu, Trp, His and Ade for 5 days
# BK-OsUbc13 (rice) = experiment: as above
# OsUEV1B (rice) = experiment: as above
# OsOTUB1.1-cYFP (rice) = experiment: split reporter; BiFC; nYFP and cYFP fusions co-expressed in N. benthamiana leaves by Agrobacterium infiltration, 2 days, confocal microscopy (514 nm laser)
# OsOTUB1.1-nYFP (rice) = experiment: as above
Binder,binding (BK-OsOTUB1.1 (rice)),binding (BK-OsUbc13 (rice)),further results
"AD-OsSnRK1a^287–505 (domain or fragment, UniProt Q852Q2 287-505) KLDDETLNDVINMGFDKNQLIESLHKRLQNEATVAYYLLLDNRLRTTSGYLGAEFHESMESSLAQVTPAETPNSATDHRQHGHMESPGFGLRHHFAADRKWALGLQSRAHPREIITEVLKALQELNVCWKKIGHYNMKCRWSPSFPSHESMMHNNHGFGAESAIIETDDSEKSTHTVKFEIQLYKTRDEKYLLDLQRVSGPQLLFLDLCSAFLTQLRVL",binds,binds,–
"AD-OsSnRK1a (enzyme, UniProt Q852Q2 1-505) MEGAGRDGNPLGGYRIGKTLGIGSFGKVKIAEHILTGHKVAIKILNRRKIKSMEMEEKVKREIKILRLFMHPHIIRLYEVIDTPADIYVVMEYVKSGELFDYIVEKGRLQEEEARRFFQQIISGVEYCHRNMVVHRDLKPENLLLDSKCNVKIADFGLSNVMRDGHFLKTSCGSPNYAAPEVISGKLYAGPEVDVWSCGVILYALLCGTLPFDDENIPNLFKKIKGGIYTLPSHLSPLARDLIPRMLVVDPMKRITIREIREHQWFTVGLPRYLAVPPPDTAQQVKKLDDETLNDVINMGFDKNQLIESLHKRLQNEATVAYYLLLDNRLRTTSGYLGAEFHESMESSLAQVTPAETPNSATDHRQHGHMESPGFGLRHHFAADRKWALGLQSRAHPREIITEVLKALQELNVCWKKIGHYNMKCRWSPSFPSHESMMHNNHGFGAESAIIETDDSEKSTHTVKFEIQLYKTRDEKYLLDLQRVSGPQLLFLDLCSAFLTQLRVL",binds,binds,binding (OsUEV1B (rice)): binds
"OsSnRK1a^K139R (enzyme, UniProt Q852Q2 1-505) MEGAGRDGNPLGGYRIGKTLGIGSFGKVKIAEHILTGHKVAIKILNRRKIKSMEMEEKVKREIKILRLFMHPHIIRLYEVIDTPADIYVVMEYVKSGELFDYIVEKGRLQEEEARRFFQQIISGVEYCHRNMVVHRDLRPENLLLDSKCNVKIADFGLSNVMRDGHFLKTSCGSPNYAAPEVISGKLYAGPEVDVWSCGVILYALLCGTLPFDDENIPNLFKKIKGGIYTLPSHLSPLARDLIPRMLVVDPMKRITIREIREHQWFTVGLPRYLAVPPPDTAQQVKKLDDETLNDVINMGFDKNQLIESLHKRLQNEATVAYYLLLDNRLRTTSGYLGAEFHESMESSLAQVTPAETPNSATDHRQHGHMESPGFGLRHHFAADRKWALGLQSRAHPREIITEVLKALQELNVCWKKIGHYNMKCRWSPSFPSHESMMHNNHGFGAESAIIETDDSEKSTHTVKFEIQLYKTRDEKYLLDLQRVSGPQLLFLDLCSAFLTQLRVL",–,binds,–
"AD-OsSnRK1a^1–327 (domain or fragment, UniProt Q852Q2 1-327) MEGAGRDGNPLGGYRIGKTLGIGSFGKVKIAEHILTGHKVAIKILNRRKIKSMEMEEKVKREIKILRLFMHPHIIRLYEVIDTPADIYVVMEYVKSGELFDYIVEKGRLQEEEARRFFQQIISGVEYCHRNMVVHRDLKPENLLLDSKCNVKIADFGLSNVMRDGHFLKTSCGSPNYAAPEVISGKLYAGPEVDVWSCGVILYALLCGTLPFDDENIPNLFKKIKGGIYTLPSHLSPLARDLIPRMLVVDPMKRITIREIREHQWFTVGLPRYLAVPPPDTAQQVKKLDDETLNDVINMGFDKNQLIESLHKRLQNEATVAYYLLLD",no binding,no binding,–
"AD-OsSnRK1a^328–505 (domain or fragment, UniProt Q852Q2 328-505) NRLRTTSGYLGAEFHESMESSLAQVTPAETPNSATDHRQHGHMESPGFGLRHHFAADRKWALGLQSRAHPREIITEVLKALQELNVCWKKIGHYNMKCRWSPSFPSHESMMHNNHGFGAESAIIETDDSEKSTHTVKFEIQLYKTRDEKYLLDLQRVSGPQLLFLDLCSAFLTQLRVL",binds,binds,–
"AD-OsCPI (protein, UniProt Q6I570 1-184) MLRRRGFCCCSGAPAAAAAALLLLAVAAAAPRAAGFHLGGDESVLVRGMLAAIRREQAEAEDAARFAVAEYNKNQGAELEFARIVKAKRQVVTGTLHDLMLEVVDSGKKSLYSAKVWVKPWLDFKAVVEFRHVGDSQSQSATAADDNAGQDTADPTVASRNDLHNTENNKVSVVLSTFSQTYSV",–,no binding,–
"AD-OsSnRK1a^1–455 (domain or fragment, UniProt Q852Q2 1-455) MEGAGRDGNPLGGYRIGKTLGIGSFGKVKIAEHILTGHKVAIKILNRRKIKSMEMEEKVKREIKILRLFMHPHIIRLYEVIDTPADIYVVMEYVKSGELFDYIVEKGRLQEEEARRFFQQIISGVEYCHRNMVVHRDLKPENLLLDSKCNVKIADFGLSNVMRDGHFLKTSCGSPNYAAPEVISGKLYAGPEVDVWSCGVILYALLCGTLPFDDENIPNLFKKIKGGIYTLPSHLSPLARDLIPRMLVVDPMKRITIREIREHQWFTVGLPRYLAVPPPDTAQQVKKLDDETLNDVINMGFDKNQLIESLHKRLQNEATVAYYLLLDNRLRTTSGYLGAEFHESMESSLAQVTPAETPNSATDHRQHGHMESPGFGLRHHFAADRKWALGLQSRAHPREIITEVLKALQELNVCWKKIGHYNMKCRWSPSFPSHESMMHNNHGFGAESAIIETDD",no binding,no binding,–
"OsSnRK1a^1–455-nYFP (domain or fragment, UniProt Q852Q2 1-455) MEGAGRDGNPLGGYRIGKTLGIGSFGKVKIAEHILTGHKVAIKILNRRKIKSMEMEEKVKREIKILRLFMHPHIIRLYEVIDTPADIYVVMEYVKSGELFDYIVEKGRLQEEEARRFFQQIISGVEYCHRNMVVHRDLKPENLLLDSKCNVKIADFGLSNVMRDGHFLKTSCGSPNYAAPEVISGKLYAGPEVDVWSCGVILYALLCGTLPFDDENIPNLFKKIKGGIYTLPSHLSPLARDLIPRMLVVDPMKRITIREIREHQWFTVGLPRYLAVPPPDTAQQVKKLDDETLNDVINMGFDKNQLIESLHKRLQNEATVAYYLLLDNRLRTTSGYLGAEFHESMESSLAQVTPAETPNSATDHRQHGHMESPGFGLRHHFAADRKWALGLQSRAHPREIITEVLKALQELNVCWKKIGHYNMKCRWSPSFPSHESMMHNNHGFGAESAIIETDD",–,–,binding (OsOTUB1.1-cYFP (rice)): no binding
"OsSnRK1a^1–455-cYFP (domain or fragment, UniProt Q852Q2 1-455) MEGAGRDGNPLGGYRIGKTLGIGSFGKVKIAEHILTGHKVAIKILNRRKIKSMEMEEKVKREIKILRLFMHPHIIRLYEVIDTPADIYVVMEYVKSGELFDYIVEKGRLQEEEARRFFQQIISGVEYCHRNMVVHRDLKPENLLLDSKCNVKIADFGLSNVMRDGHFLKTSCGSPNYAAPEVISGKLYAGPEVDVWSCGVILYALLCGTLPFDDENIPNLFKKIKGGIYTLPSHLSPLARDLIPRMLVVDPMKRITIREIREHQWFTVGLPRYLAVPPPDTAQQVKKLDDETLNDVINMGFDKNQLIESLHKRLQNEATVAYYLLLDNRLRTTSGYLGAEFHESMESSLAQVTPAETPNSATDHRQHGHMESPGFGLRHHFAADRKWALGLQSRAHPREIITEVLKALQELNVCWKKIGHYNMKCRWSPSFPSHESMMHNNHGFGAESAIIETDD",–,–,binding (OsOTUB1.1-nYFP (rice)): no binding
"AD-OsSnRK1a^1–286 (domain or fragment, UniProt Q852Q2 1-286) MEGAGRDGNPLGGYRIGKTLGIGSFGKVKIAEHILTGHKVAIKILNRRKIKSMEMEEKVKREIKILRLFMHPHIIRLYEVIDTPADIYVVMEYVKSGELFDYIVEKGRLQEEEARRFFQQIISGVEYCHRNMVVHRDLKPENLLLDSKCNVKIADFGLSNVMRDGHFLKTSCGSPNYAAPEVISGKLYAGPEVDVWSCGVILYALLCGTLPFDDENIPNLFKKIKGGIYTLPSHLSPLARDLIPRMLVVDPMKRITIREIREHQWFTVGLPRYLAVPPPDTAQQVK",no binding,no binding,–

# Further lines, with some results ahead:
binding (BK-OsOTUB1.1 (rice)),binding (BK-OsUbc13 (rice)),Binder,further results
–,binds,"AD-OsSnRK1a^K43M (enzyme, UniProt Q852Q2 1-505) MEGAGRDGNPLGGYRIGKTLGIGSFGKVKIAEHILTGHKVAIMILNRRKIKSMEMEEKVKREIKILRLFMHPHIIRLYEVIDTPADIYVVMEYVKSGELFDYIVEKGRLQEEEARRFFQQIISGVEYCHRNMVVHRDLKPENLLLDSKCNVKIADFGLSNVMRDGHFLKTSCGSPNYAAPEVISGKLYAGPEVDVWSCGVILYALLCGTLPFDDENIPNLFKKIKGGIYTLPSHLSPLARDLIPRMLVVDPMKRITIREIREHQWFTVGLPRYLAVPPPDTAQQVKKLDDETLNDVINMGFDKNQLIESLHKRLQNEATVAYYLLLDNRLRTTSGYLGAEFHESMESSLAQVTPAETPNSATDHRQHGHMESPGFGLRHHFAADRKWALGLQSRAHPREIITEVLKALQELNVCWKKIGHYNMKCRWSPSFPSHESMMHNNHGFGAESAIIETDDSEKSTHTVKFEIQLYKTRDEKYLLDLQRVSGPQLLFLDLCSAFLTQLRVL",–
no binding,no binding,"SEKSTHTVKFEIQLYKTRDEKYLLDLQRVSGPQLLFLDLCSAFLTQLRVL (domain or fragment, UniProt Q852Q2 456-505) [AD-OsSnRK1a^456–505]",–
–,no binding,"AD-OsYchF1 (protein, UniProt Q6Z1J6 1-394) MPPKASKKDAAPAERPILGRFSSHLKIGIVGLPNVGKSTFFNIVTKLSIPAENFPFCTIDPNEARVYVPDERFDWLCQLYKPKSEVSAYLEINDIAGLVRGAHAGEGLGNAFLSHIRAVDGIFHVLRAFEDKEVTHIDDSVDPVRDLETIGEELRLKDIEFVQNKIDDLEKSMKRSNDKQLKLEHELCEKVKAHLEDGKDVRFGDWKSADIEILNTFQLLTAKPVVYLVNMSEKDYQRKKNKFLPKIHAWVQEHGGETIIPFSCAFERLLADMPPDEAAKYCAENQIASVIPKIIKTGFAAIHLIYFFTAGPDEVKCWQIRRQTKAPQAAGTIHTDFERGFICAEVMKFDDLKELGSESAVKAAGKYRQEGKTYVVQDGDIIFFKFNVSGGGKK",–
